PubChem BioAssay AID743456 – Peter MacCallum Cancer Centre | 2014
This is an unselected part of 878 reagents. In the full data, 27 (3.1%) are marked active. 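27 mimics are marked active, unlike an earlier stated count of 24; the viability threshold is described inconsistently.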 No sequences are given here. Not stated in the record: the amount of reagent.

Screen: 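Mimic library tested for viability and apoptosis changes under vorinostat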 (primary screen)
Cells: human HCT116-VR colon cancer cells, a vorinostat-resistant HCT116 line
Reagent: miRNA mimic
Timing: about 3 days from transfection to readout; drug present for the last 24 h
Conditions: vorinostat at 2.5 µM final for 24 h
Detection: 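Per-well live-cell protease fluorescence and caspase luminescence under 2.5 µM vorinostat for 24 h, scored as robust z-scores and against mock transfection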
Scale: viability robust z-score and viability vs mock transfection: higher = more viable cells; caspase robust z-score: higher = more caspase activity, more apoptosis
Active means: 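a mimic counts as active if it lands in a lowered-viability class or a caspase-activation class; wells with too few cells without drug are left out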

microRNA	viability robust z-score	caspase robust z-score	viability hit class	caspase hit class	viability vs mock transfection	Call
hsa-miR-203	0.36	-0.74	no change	no change	0.82	inactive
hsa-miR-99a	0.16	-0.14	no change	no change	0.82	inactive
hsa-miR-1275	-3.3	2.23	reduced viability	no change	0.24	active
hsa-miR-144	0.54	-0.72	no change	no change	0.84	inactive
hsa-miR-1270	-2.17	2.34	no change	no change	0.36	inactive
hsa-miR-1280	-1.95	-1.03	no change	no change	0.46	inactive
hsa-miR-613	-0.86	1.08	no change	no change	0.65	inactive
hsa-miR-1206	0.99	-0.48	no change	no change	0.95	inactive
hsa-miR-567	-1.18	-1.12	no change	no change	0.62	inactive
hsa-miR-1827	-1.92	1.84	no change	no change	0.41	inactive
hsa-miR-155*	1.07	-0.46	no change	no change	0.97	inactive
hsa-miR-345	-0.26	0.76	no change	no change	0.75	inactive

Copied from the list.
hsa-miR-1275, viability hit class = reduced viability
Entry of hsa-miR-1827 in “caspase hit class”: no change
Under “viability robust z-score”, hsa-miR-1270 is entered as -2.17

Further results follow.
microRNA	viability robust z-score	caspase robust z-score	viability hit class	caspase hit class	viability vs mock transfection	Call
hsa-miR-875-3p	0.38	-0.31	no change	no change	0.82	inactive
hsa-miR-561	1	-0.48	no change	no change	0.96	inactive
hsa-miR-1826	0.85	-0.58	no change	no change	0.93	inactive
hsa-miR-187	1.04	0.82	no change	no change	0.96	inactive
hsa-miR-10b*	1.25	0.36	no change	no change	0.98	inactive
hsa-miR-510	-0.88	-0.14	no change	no change	0.66	inactive
hsa-miR-652	0.73	-0.82	no change	no change	0.91	inactive
hsa-miR-938	-0.27	2.54	no change	no change	0.76	inactive
